# Reference: PubChem BioAssay AID1671190 (National Center for Advancing Translational Sciences (NCATS), 2021)
# Amino acid sequences for entries named in this document (tags omitted). A change or cut given only in a name is not applied to a line headed by its entry.
# UniProt P18054: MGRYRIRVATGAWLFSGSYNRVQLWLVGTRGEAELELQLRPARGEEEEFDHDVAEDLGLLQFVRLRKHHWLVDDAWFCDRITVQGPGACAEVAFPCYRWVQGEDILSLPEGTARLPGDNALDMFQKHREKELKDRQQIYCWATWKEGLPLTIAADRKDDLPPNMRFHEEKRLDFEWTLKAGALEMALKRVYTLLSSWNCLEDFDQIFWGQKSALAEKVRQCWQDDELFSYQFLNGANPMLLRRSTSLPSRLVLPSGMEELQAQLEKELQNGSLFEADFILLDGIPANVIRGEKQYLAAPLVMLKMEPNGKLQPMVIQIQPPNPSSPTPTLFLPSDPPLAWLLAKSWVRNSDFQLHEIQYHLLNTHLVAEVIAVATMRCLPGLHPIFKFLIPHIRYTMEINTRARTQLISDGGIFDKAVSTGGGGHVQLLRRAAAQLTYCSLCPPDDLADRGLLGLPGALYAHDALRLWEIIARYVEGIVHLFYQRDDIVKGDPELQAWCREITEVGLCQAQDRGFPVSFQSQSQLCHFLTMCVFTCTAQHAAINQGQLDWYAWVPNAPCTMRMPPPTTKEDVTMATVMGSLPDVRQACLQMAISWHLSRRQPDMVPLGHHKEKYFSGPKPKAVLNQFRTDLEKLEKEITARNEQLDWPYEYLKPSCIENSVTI
# Several values for one entry are separate records, joined by “and”; a condition that tells them apart may be missing. Identical values can stand only once. Among all 580,000 compounds or so, about 6,100 (1.1%) were called active. The inconclusive results got no clear call from the source; some entries with a clear call stand among them for comparison. The call rests on the fitted dose curve; in most records, active means well fitted inhibition curve with a large enough effect; inconclusive means small, poorly fitted or top-dose-only effect, or another doubt; inactive means no such curve, though single readings can be large or run the other way. Where the call is inconclusive, the potency comes from a doubtful curve fit.
# Target: Polyunsaturated fatty acid lipoxygenase ALOX12 (Homo sapiens) (UniProt P18054)
# Test: Primary qHTS assay for inhibitors of human arachidonate 12S-lipoxygenase (ALOX12): Round 2
# Settings: purified 12hLO, xylenol orange hydroperoxide absorbance; series mostly up to 108 µM
# Summary of the method: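 Purified human 12hLO (150 nM final) in 25 mM Hepes, 0.01% Triton X-100, pH 7.0 was preincubated 15 min at room temperature with compound. Then 40 uM arachidonic acid was added, 30 min. Hydroperoxide was read by Fe-XO absorbance ratio 573/405 nm.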
# Potency means the concentration at half of the fitted maximal effect.
row,Structure (SMILES),Potency
1,C[C@H](c1ccccc1)N1C[C@@H](COCc2ccccc2)Oc2cc(N3CC[C@@H](N(C)C)C3)ccc2S1(=O)=O,"inconclusive: 35.5 µM [inhibitor, partial curve, poor fit]"
2,O=C(CN1CCC(n2nnc3cc(F)ccc32)CC1)NC1CCCCC1,inactive
3,Cc1occc1C(=O)N1C[C@@H](C(=O)O)C[C@H](C(=O)NCc2ccccn2)C1,inactive
4,Cc1oc(-c2nc(C#N)c(NCc3ccc(F)cc3)o2)cc1S(=O)(=O)N(C)C,inactive
5,COc1ccc(Cl)cc1C(=O)N1CCC2(CC1)NC(=O)N(c1ccccc1Cl)N2,active: 1.78 µM
6,CCNc1ncc2nc(C)c(=O)n(CCc3ccccc3)c2n1,"inconclusive: 35.5 µM [inhibitor, partial curve, poor fit]"
7,Cc1ccc(-c2ccnc(=S)[nH]2)cc1C,active: 2.51 µM
8,COC(=O)c1ccc(Sc2ccc(C)cc2)c(N)c1,"inconclusive: 35.5 µM [inhibitor, full curve, poor fit]"
9,CC(C)(C)c1ccc(OCC(O)CN2CCOCC2)cc1 (stereo not drawn),"inconclusive: 28.2 µM [inhibitor, partial curve, poor fit]"
10,CC(=O)N1CCCc2cc(S(=O)(=O)NCc3ccccc3Cl)ccc21,"inconclusive: 70.8 µM [inhibitor, partial curve, poor fit] and inconclusive: 3.55 µM [inhibitor, partial curve, poor fit]"
11,CC(=O)N(C)c1ccc(NC(=S)NC(=O)/C=C/c2ccco2)cc1,"inconclusive: 56.2 µM [inhibitor, partial curve, poor fit]"
12,O=C1S/C(=C\c2ccccn2)C(=O)N1Cc1ccccc1F,"inconclusive: 44.7 µM [inhibitor, partial curve, poor fit]"
13,c1ccc2c(SCc3cn4cccnc4n3)ncnc2c1,"inconclusive: 39.8 µM [inhibitor, partial curve, poor fit]"
14,CC(=O)Nc1ccc(CN2C[C@H](O)C[C@H]2c2nc(C(C)C)no2)cc1,"inconclusive: 35.5 µM [inhibitor, single point]"
15,CCOC(=O)c1c(-c2ccc(C)o2)csc1NC(=O)CSc1nnnn1-c1ccccc1,"inconclusive: 7.94 µM [inhibitor, full curve, poor fit]"
16,COC(=O)C1=CO[C@@H](O[C@@H]2O[C@H](CO)[C@@H](O)[C@H](O)[C@H]2O)C2C(CO)=CCC12 (stereo partly drawn),"inconclusive: 70.8 µM [inhibitor, partial curve, poor fit]"
17,COc1ccc(COC(=O)c2ccc(S(=O)(=O)N3CCC(C)CC3)cc2)cc1,inactive
18,COc1ccccc1CN(C)C(=O)c1ccccc1SCC(=O)N1CCCC1,inactive
19,O=S(=O)(NNc1ccc(F)cc1F)c1cccc(Cl)c1,"inconclusive: 39.8 µM [inhibitor, partial curve, poor fit]"
20,Cc1ccc(C)c(NC(=O)c2cc(S(=O)(=O)N3CCN(c4cccc(Cl)c4)CC3)ccc2F)c1,"inconclusive: 141 µM [inhibitor, partial curve, poor fit]"
21,O=C(CNc1ccc2ccccc2c1)N/N=C/C=C/c1cccc([N+](=O)[O-])c1,inactive
22,CC(=O)Nc1ccc(CNC2CCCC(C(F)(F)F)C2)cc1 (stereo not drawn),inactive
23,COc1ccccc1NC(=O)CCC(=O)c1ccc(-c2ccccc2)cc1,"inconclusive: 50.1 µM [inhibitor, partial curve, poor fit]"

row,Structure (SMILES),Potency
1,COC(=O)c1cc2ccccc2c([N+](=O)[O-])c1O,inactive
2,COc1cccc(NC(=O)C(Sc2nnc3ccccn23)c2ccccc2)c1 (stereo not drawn),inactive
3,CNC(=O)c1c(C)[nH]c(=S)c(C#N)c1-c1ccco1,"inconclusive: 35.5 µM [inhibitor, partial curve]"
4,[N-]=[N+]=CC(=O)c1ccnc(C(=O)C=[N+]=[N-])c1,inactive
5,CC(=O)Nc1cccc(-c2ccnc(-c3nnc(C)n3CCc3ccccc3)c2)c1,inactive
6,CN1CCc2c(sc3c2c(=O)n(-c2ccccc2)c2nnc(SCc4ccccc4)n32)C1,"inconclusive: 31.6 µM [inhibitor, partial curve, poor fit]"
7,COC(=O)NCC(C)OC(=O)Nc1cccc(Cl)c1 (stereo not drawn),"inconclusive: 112 µM [inhibitor, single point]"
8,CCOc1cc(OCC)cc(C(=O)N2CCC[C@@H]2C(=O)N2CCC[C@H]2C(=O)NCc2ccncc2)c1,"inconclusive: 100 µM [inhibitor, single point]"
9,COc1ccc(C(=O)NCC(c2ccco2)N2CCc3ccccc3C2)c(OC)c1 (stereo not drawn),"inconclusive: 89.1 µM [inhibitor, single point]"
10,Cc1noc2c(N3CCN(C)CC3c3ccccc3)cc(-c3cccnc3)nc12 (stereo not drawn),inactive
11,CCOC(=O)C1=C(C)N=C2SC(C)C(=O)N2C1c1ccccc1 (stereo not drawn),inactive
12,Cc1c(Cl)cccc1NC(=S)Nc1ccccn1,"inconclusive: 35.5 µM [inhibitor, single point]"
13,CCCCN1C(=O)NC(c2ccccc2OC)C2=C1COC2=O (stereo not drawn),inactive
14,NC(=O)c1ccc(NC(=O)c2ccc3nc(-n4cccc4)sc3c2)cc1,"inconclusive: 6.31 µM [inhibitor, single point]"
15,Cc1ccccc1NS(=O)(=O)c1ccc(C(=O)N2CCCC2)cc1,inactive
16,O=C(COC(=O)c1ccc(Cl)nc1)Nc1ccc(N2CCOCC2)cc1,"inconclusive: 79.4 µM [inhibitor, partial curve, poor fit]"
17,CC(C)c1ccc2[nH]c(C(C)(C)C)c(C=O)c2c1,"inconclusive: 50.1 µM [inhibitor, single point]"
18,N#CC1=C(N)OC2=C(C(=O)CC(c3ccccc3)C2)C1Cc1ccccc1 (stereo not drawn),"inconclusive: 44.7 µM [inhibitor, partial curve, poor fit]"
19,Cc1c(C(=O)O)oc2ccccc12,"inconclusive: 0.224 µM [inhibitor, full curve, poor fit]"
20,Cc1cc(Br)ccc1NC(=O)CNC(=O)c1cc2ccccc2oc1=O,"inconclusive: 25.1 µM [inhibitor, partial curve, poor fit]"
21,COc1ccc(C(C[N+](=O)[O-])c2c(-c3ccccc3)cc3ccccn23)c(OC)c1 (stereo not drawn),active: 1.58 µM
22,COc1cc(/C=N/OCc2cccc(C(F)(F)F)c2)ccc1OCc1ccc(Cl)cc1,"inconclusive: 112 µM [inhibitor, single point]"
23,O=C(OCCN1C(=O)c2cccc3c(N4CCOCC4)ccc(c23)C1=O)c1ccccc1Cl,"inconclusive: 14.1 µM [inhibitor, full curve, poor fit]"

row,Structure (SMILES),Potency
1,CC1CCN(c2nc3c(c(=O)n(C)c(=O)n3C)n2Cc2cccc(C(F)(F)F)c2)CC1,"inconclusive: 25.1 µM [inhibitor, partial curve, poor fit]"
2,CCN(CC)CCNC(=O)c1ccccc1C(=O)c1ncc[nH]1,inactive
3,N#Cc1ccc(/C=C2\Oc3cc(O)ccc3C2=O)cc1,inactive
4,CCNc1ccc(S(N)(=O)=O)cc1[N+](=O)[O-],"inconclusive: 44.7 µM [inhibitor, partial curve, poor fit]"
5,O=c1cc(CN2CCN(Cc3ccc(F)cc3)C(CCO)C2)[nH]c2ccccc12 (stereo not drawn),active: 35.5 µM
6,Cn1cc(CN2CCCC(C(=O)Nc3cccc(-n4cccn4)c3)C2)cn1 (stereo not drawn),inactive
7,CCOC(=O)/C=C/c1ccc(NC(=O)c2ccc(CN3CCOCC3)cc2)cc1,inactive
8,O=C(NC(C(=O)c1ccccc1)n1c(=O)cc[nH]c1=S)c1ccccc1 (stereo not drawn),"inconclusive: 39.8 µM [inhibitor, partial curve]"
9,Cc1cccc(-n2ncc3c(N4CCC5(CC4)OCCO5)ncnc32)c1,"inconclusive: 89.1 µM [inhibitor, single point]"
10,COc1ccccc1Nc1ncncc1-c1nc(-c2ccccc2)no1,inactive
11,Cc1ccc(C2C(C#N)=C(SCC(=O)Nc3cccc(Cl)c3)NC3=C2C(=O)CCC3)o1 (stereo not drawn),"inconclusive: 44.7 µM [inhibitor, partial curve, poor fit]"
12,O=S(=O)(c1ccc2ccccc2c1)N1CCN(S(=O)(=O)c2c(F)cccc2F)CC1,inactive
13,O=C(Oc1ccccc1F)c1nc(SCc2ccccc2F)ncc1Cl,"inconclusive: 126 µM [inhibitor, partial curve, poor fit]"
14,Cn1c(=O)[nH]c(=O)c2c1nc(NN)n2CCOc1ccccc1,inactive
15,Cc1nc(NCC(C)C)sc1C(=O)Nc1ccccc1,"inconclusive: 28.2 µM [inhibitor, partial curve, poor fit]"
16,Cc1cc(C)cc(OCC(=O)Nc2ccc(F)cc2)c1,"inconclusive: 50.1 µM [inhibitor, partial curve, poor fit]"
17,COc1cccc(N2CCN(CC(=O)Nc3nc(C)c(C(=O)N(C)C)s3)CC2)c1,"inconclusive: 3.55 µM [inhibitor, full curve, poor fit]"
18,CC1CCN(C(=O)c2ccc(CSc3ccc(Cl)cc3)cc2)CC1,"inconclusive: 89.1 µM [inhibitor, partial curve, poor fit]"
19,Cc1[nH]c2ccccc2c1SCc1nnc(SCc2ccccc2)n1C,inactive
20,COc1ccc(CN2CCN(C(=O)CC(C)C)CC2)c(OC)c1OC,"inconclusive: 0.562 µM [inhibitor, full curve, poor fit]"
21,CC(=O)c1c[nH]c(C(=O)NC(C)c2ccccc2Cl)c1 (stereo not drawn),"inconclusive: 1.78 µM [inhibitor, full curve]"
22,CCc1ccccc1OCC(=O)c1ccc2c(c1)N(CCCC(=O)NCC1CCCO1)C(=O)CO2 (stereo not drawn),inactive
